Results taken from PubChem BioAssay AID1347076 (National Center for Advancing Translational Sciences (NCATS), 2019).
Among all 400,000 compounds or so, about 13,000 (3.2%) were called active. This list was built around the results that the source calls inconclusive (neither active nor inactive); the mix of calls is not that of the screen. Calls come from the whole dose curve; as a rule, active = well fitted cell-killing curve with a large enough effect; inconclusive = small, poorly fitted or top-dose-only effect, or effect the other way; inactive = flat fitted curve, though single readings scatter. Potencies beside an inconclusive call are fits to weak or partial responses and may not hold up.

Experiment: qHTS assay for MDR1-selective chemotherapeutics: Primary screen using the drug-selected MDR subline cells KB-V1; note: nearly all actives have a fitted effect of over 60% in size
Settings: KB-V1 MDR cells viability, CellTiter-Glo, 72 h; activity change, negative = cytotoxicity: at 46.1 µM (top of the series)
Summary of the method: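 qHTS viability screen in drug-selected KB-V1 MDR cells: 72 h compound treatment at 37 degrees C, ATP luminescence end point.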
% is set by controls: 0 for no effect and ±100 for the full control effect; potency is the fitted concentration of half-maximal effect.

SMILES	Potency	activity change, negative = cytotoxicity
CCN(CC)C(=O)Oc1ccc2oc(=O)cc(-c3cc4cccc(OC)c4o3)c2c1	inconclusive: 29.1 µM [cytotoxic, single point]	–
CC1CCN(S(=O)(=O)c2ccc(NC(=O)c3ccccc3F)cc2)CC1	inconclusive: 10.3 µM [cytotoxic, partial curve, poor fit]	–
CC(=O)Nc1cccc(OCC(=O)/C=C2\N(C)c3ccccc3C2(C)C)c1	inconclusive: 20.6 µM [cytotoxic, partial curve, poor fit]	–
CCN(CC)C(=O)c1sc2nc(N3CCOCC3)c3c(c2c1N)CCCC3	active: 4.61 µM	–
Cc1nn(CC(=O)NC2CCCCC2)c(=O)c2cc3cc(F)ccc3n12	inconclusive: 16.4 µM [rising, single point]	–
NS(=O)(=O)c1ccc(NC(=O)COC(=O)C2(c3ccc(F)cc3)CCCC2)cc1	inconclusive: 16.4 µM [cytotoxic, partial curve]	–
O=C(c1ccc2c(c1)OCO2)C1CCCN(Cc2ccc(OC(F)F)cc2)C1 (stereo not given)	inconclusive: 16.4 µM [cytotoxic, single point]	–
COc1ccc(-c2nnc3n2N=C(C)CS3)cc1	–	inactive: 4.92%
Cc1cc(C)nc(-n2nc(C)cc2Nc2ccccc2)n1	inconclusive: 9.2 µM [cytotoxic, partial curve, poor fit]	–
CCc1ccc(Oc2nc3c(C)cccn3c(=O)c2/C=C(\C#N)c2nc3ccccc3[nH]2)cc1	–	inactive: 7.75%
CC(=O)c1c(C)[nH]c(=S)c(C#N)c1-c1ccc(Cl)cc1	inconclusive: 0.0046 µM [rising, full curve, poor fit]	–
CC(=O)N1CCN(CC(=O)Nc2ccc3c(c2)CCC3)CC1	–	inactive: 2.31%
Cc1[nH]c2ccc(C(=O)NCCCN3CCN(C)CC3)cc2c1C	inconclusive: 29.1 µM [rising, single point]	–
COc1ccc(-n2c(C)cc(/C=N/Nc3nnc(C)n3N)c2C)cc1	–	inactive: 0%
FC(F)(F)c1cccc(N2CCN(c3ccc4nnc(-c5ccccc5)n4n3)CC2)c1	active: 16.4 µM	–
Cc1cc(=O)n2[nH]c(NCc3ccc(F)cc3)nc2n1	inconclusive: 7.31 µM [rising, partial curve, poor fit]	–
Cc1ccc(-n2nc(C)c3c(C)cc(=O)n(CC(=O)Nc4ccc(Br)cc4F)c32)cc1	–	inactive: 14.6%
CCOc1ccc2nc(-c3ccccc3)[nH]c2c1	–	inactive: -4.35%
CC(C)OC(=O)c1ccc(Cn2nnc3ccccc3c2=O)cc1	inconclusive: 23.1 µM [cytotoxic, single point]	–
COc1cccc(/C(C)=N/NC(=O)c2ccc(N(C)C)cc2)c1	inconclusive: 18.4 µM [cytotoxic, partial curve]	–
OCCN1CCN(c2nc(-c3ccccc3)nc3c2oc2ccccc23)CC1	inconclusive: 6.51 µM [cytotoxic, partial curve, poor fit]	–
COc1cccc(C(=O)Nc2cc(C)ccc2NC(=O)COc2ccccc2)c1	inconclusive: 3.26 µM [cytotoxic, full curve, poor fit]	–
O=C(Nc1ccc(Br)cn1)c1ccc2ccccc2c1	inconclusive: 25.9 µM [cytotoxic, single point]	–
COc1ccc(NC(=O)c2sc3nc4c(cc3c2N)CN(C(C)C)CC4)c(OC)c1	–	inactive: 7.3%

SMILES	Potency	activity change, negative = cytotoxicity
Cc1cccc(NC(=O)c2sc(C)nc2C)c1	inconclusive: 18.4 µM [cytotoxic, single point]	–
COc1cc(-c2noc(CSc3nc(-c4ccccc4)cc(=O)[nH]3)n2)cc(OC)c1OC	–	inactive: 8.58%
COc1ccc(NC(=O)CN2CCN(S(=O)(=O)c3ccc(Br)cc3)CC2)c(OC)c1	–	inactive: -5.75%
COc1ccccc1-c1cc(C(F)(F)F)nc(S(=O)(=O)CCCC(=O)Nc2cc(OC)c(OC)c(OC)c2)n1	inconclusive: 25.9 µM [rising, partial curve, poor fit]	–
O=C(Cn1cnc2ccccc21)Nc1ccc2c(c1)OCCCO2	inconclusive: 29.1 µM [cytotoxic, single point]	–
Cc1csc(-c2ccc3cc(Cl)cc(Cl)c3n2)n1	–	inactive: -8.93%
C1CCCN(c2nc3nonc3nc2N2CCCCCC2)CC1	inconclusive: 8.2 µM [cytotoxic, partial curve]	–
O=C(c1ccc(S(=O)(=O)N2CCOCC2)cc1)N1CCN(c2ccccc2)CC1	active: 16.4 µM	–
CCOC(=O)C(Sc1nnc2c3ccccc3n(CC)c2n1)C(=O)OCC	active: 13 µM	–
COc1ccc(Cn2c(-c3ccc(C)cc3)nc3c(c(=O)c4ccccc4n3C)c2=O)cc1	inconclusive: 9.2 µM [cytotoxic, partial curve]	–
N#CCC(=O)N/N=C/c1c(-c2ccccc2)n(-c2ccccc2)c2ccccc12	inconclusive: 20.6 µM [cytotoxic, single point]	–
O=S(=O)(c1ccccc1)N1CCC2(CC1)CO2	–	inactive: 0%
Cc1ccc2c(c1)c1c(c(=O)n(-c3ccccc3C)c(=O)n1CC(=O)NCc1ccccc1)n2C	–	inactive: -6.39%
Cn1c(=O)c2cc(NC(=O)NCc3ccc(Cl)cc3Cl)ccc2n1Cc1ccc(F)cc1	–	inactive: 0.961%
Cc1ccc(CC(=O)N2CCN(c3cccc(C(F)(F)F)c3)CC2)cc1	inconclusive: 29.1 µM [cytotoxic, single point]	–
CCOC(=O)c1ccc(N2C(=O)c3n[nH]c(-c4cccs4)c3C2c2ccc(C(C)C)cc2)cc1 (stereo not given)	inconclusive: 25.9 µM [cytotoxic, partial curve, poor fit]	–
COc1cc(SC)ccc1C(=O)Nc1ccc(C)cc1	inconclusive: 29.1 µM [cytotoxic, single point]	–
O=C(N/N=C/c1cccnc1)c1cc(-c2ccccc2OCc2ccccc2)n[nH]1	inconclusive: 18.4 µM [cytotoxic, single point]	–
Cc1cccc(C)c1NC(=O)C1(N(Cc2ccco2)C(=O)c2ccccn2)CCCC1	–	inconclusive: -32% [cytotoxic]
Cc1c(-c2ccccc2)nc(-c2ccccc2)[nH]c1=O	inconclusive: 29.1 µM [cytotoxic, partial curve, poor fit]	–
COc1cccc(CNCC(O)(c2ccc(Cl)cc2)c2ccc(Cl)cc2)c1	active: 14.6 µM	–
Cc1ccc(OCCN2C(=O)C(=O)c3cccc(C)c32)cc1	–	inactive: -24.6%
CC1(C(=O)NS(=O)(=O)C2CC2)CCCN(C(=O)c2cccnc2Oc2ccccc2)C1 (stereo not given)	–	inactive: 4.03%
N#Cc1ccccc1S(=O)(=O)N1CCN(C(=O)Cc2coc3cc(O)ccc23)CC1	–	inactive: 4.7%

SMILES	Potency	activity change, negative = cytotoxicity
COc1ccc(C(=O)c2sc(Nc3cccc(OC)c3)c(C(=O)Nc3cccc(C)c3C)c2N)cc1	inconclusive: 7.31 µM [cytotoxic, partial curve, poor fit]	–
CN(Cc1cn(Cc2ccc(Cl)cc2)nn1)C1CN(Cc2cn(Cc3ccc(Cl)cc3)nn2)S(=O)(=O)C1 (stereo not given)	inconclusive: 25.9 µM [cytotoxic, single point]	–
O=C(NCc1ccco1)c1cc(C(=O)C2CCCCC2)c[nH]1	active: 10.3 µM	–
COC(=O)NNC(=O)c1ccc(Cl)cc1Cl	inconclusive: 29.1 µM [rising, single point]	–
Cc1oc(-c2ccccc2)nc1Cn1cccc1C1=NC(c2ccccc2)CO1 (stereo not given)	active: 11.6 µM	–
C=CCN(CC=C)S(=O)(=O)c1ccc(NC(=S)NC(=O)/C=C/c2cccc3ccccc23)cc1	inconclusive: 11.6 µM [cytotoxic, partial curve]	–
COc1ccc(CN(Cc2cccn2C)S(=O)(=O)c2ccccc2)cc1	inconclusive: 18.4 µM [cytotoxic, single point]	–
Cc1ccc(-n2c(N)c(S(=O)(=O)c3ccccc3)c3nc4ccccc4nc32)cc1	–	inactive: -7.96%
CN(C)S(=O)(=O)c1cccc(NC(=O)c2cccc(NS(=O)(=O)c3ccccc3)c2)c1	inconclusive: 18.4 µM [cytotoxic, single point]	–
CC(C)N(Cc1ccccc1)S(=O)(=O)c1ccc(-n2cccn2)cc1	inconclusive: 20.6 µM [cytotoxic, single point]	–
C=CCc1c(O)c(CC)cc2c(C)cc(=O)oc12	–	inactive: 3.33%
COc1ccc(-c2nnc3c4ccccc4c(C)nn23)cc1S(=O)(=O)N1CCN(CCO)CC1	inconclusive: 18.4 µM [cytotoxic, single point]	–
N#Cc1ccccc1CN1C(=O)S/C(=C/c2cccn2-c2cccc(C(=O)O)c2)C1=O	inconclusive: 18.4 µM [rising, single point]	–
COc1ccc(CNC(=O)c2cn(Cc3ccc(S(=O)(=O)N(C)C)cc3)c(=O)s2)cc1	active: 23.1 µM	–
O=C(Nc1ccc2c(c1)OCO2)c1ccccn1	inconclusive: 18.4 µM [cytotoxic, single point]	–
OCc1cccc[n+]1Cc1ccccc1	inconclusive: 29.1 µM [rising, single point]	–
N#CCCN(NC(=O)OCc1ccccc1)C(=O)OCc1ccccc1	–	inactive: 2.45%
Cc1cc(Oc2ccc(C)c(Cl)c2)nc(SCC(=O)c2ccccc2)n1	inconclusive: 16.4 µM [cytotoxic, single point]	–
COc1ccc(C(=O)NNC2=C(C(=O)C(F)(F)F)CCC2)cc1	inconclusive: 3.26 µM [rising, partial curve, poor fit]	–
CC1CCN(C(=O)c2cc3ccccc3o2)CC1	inconclusive: 13 µM [cytotoxic, single point]	–
Cc1ccc(S(=O)(=O)N2CCC(C(=O)Nc3ccc(S(=O)(=O)N4CCOCC4)cc3)CC2)cc1	active: 16.4 µM	–
COCCNC(=S)N1CCN(Cc2cccc(OC)c2)CC1	–	inactive: 9.02%

Random excerpt: 5 records from the list
SMILES	Potency	activity change, negative = cytotoxicity
OCc1cccc[n+]1Cc1ccccc1	inconclusive: 29.1 µM [rising, single point]	–
COc1ccc(C(=O)c2sc(Nc3cccc(OC)c3)c(C(=O)Nc3cccc(C)c3C)c2N)cc1	inconclusive: 7.31 µM [cytotoxic, partial curve, poor fit]	–
N#Cc1ccccc1CN1C(=O)S/C(=C/c2cccn2-c2cccc(C(=O)O)c2)C1=O	inconclusive: 18.4 µM [rising, single point]	–
C=CCc1c(O)c(CC)cc2c(C)cc(=O)oc12	–	inactive: 3.33%
O=C(Nc1ccc(Br)cn1)c1ccc2ccccc2c1	inconclusive: 25.9 µM [cytotoxic, single point]	–
